Data source: PubChem BioAssay AID1224826 (NIAID, 2016)
Purpose: 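Knock-downs that raise or lower Tnf reporter signal after endotoxin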 (primary screen). Cell system: RAW264.7 G9 macrophages from mouse bearing reporters for p65 (GFP) and the Tnf promoter (mCherry). Knock-down reagent: siRNA pool against mouse genes, 100 nM. Time to read-out: 16 h of LPS stimulation, after 2 days of siRNA transfection. Conditions: bacterial lipopolysaccharide (Salmonella minnesota R595), 10 ng/ml. Measured: 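Nuclear mCherry signal of the Tnf promoter reporter measured by imaging after background removal, scaled to each plate median and turned into robust z-scores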. Scale: Tnf reporter robust z-score: higher = stronger Tnf promoter reporter signal after LPS; Tnf reporter intensity: higher = stronger Tnf promoter reporter signal. Call rule: 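Called active when robust z-score is at most -1.3, matching the median of the Tlr4 knock-down control, or over 3; control wells and wells with under 50 cells never active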. Calls: active = Tnf reporter clearly lowered or raised; inactive = no clear change in Tnf reporter.
This is an unselected part of about 17,000 reagents tested. Of all reagents, about 1,110 (6.6%) were called active. 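Active means lowered or raised reporter signal; replicate intensities are raw and not normalised per plate.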 The numbers tell different reagents against one gene apart.

| target | reagent no. | Tnf reporter robust z-score | fewer than 50 cells in well | Tnf reporter intensity, replicate 1 | Tnf reporter intensity, replicate 2 | Outcome |
| --- | --- | --- | --- | --- | --- | --- |
| Pym1 | 1 | 1 | enough cells in well | 227 | 207 | inactive |
| Acin1 | 1 | -1.17 | enough cells in well | 104 | 100 | inactive |
| Alox12 | 1 | -0.44 | enough cells in well | 104 | 228 | inactive |
| Cfap161 | 1 | -1.2 | enough cells in well | 131 | 28.9 | inactive |
| Or10g9 | 1 | – | fewer than 50 cells per well; well left out of calls | 20.3 | 125 | inactive |
| C530043K16Rik | 1 | 0.74 | enough cells in well | 119 | 206 | inactive |
| Pde6h | 1 | -0.11 | enough cells in well | 188 | 210 | inactive |
| Mcoln2 | 1 | -1.06 | enough cells in well | 114 | 99.9 | inactive |
| Ptger2 | 1 | 1.21 | enough cells in well | 423 | 77 | inactive |
| Med18 | 1 | 1.91 | enough cells in well | 400 | 119 | inactive |
| Tox3 | 1 | -1.04 | enough cells in well | 112 | 104 | inactive |
| Plec | 1 | -0.26 | enough cells in well | 211 | 187 | inactive |
| Or2h2 | 1 | 0.13 | enough cells in well | 341 | 75.8 | inactive |
| Ptgdr | 1 | -0.09 | enough cells in well | 252 | 89.1 | inactive |
| Hoxaas2 | 1 | 0.74 | enough cells in well | 235 | 188 | inactive |
| Mettl9 | 1 | 3.95 | enough cells in well | 370 | 247 | active |
| Btbd10 | 1 | -0.32 | enough cells in well | 253 | 56.8 | inactive |
| Nek6 | 1 | 2.85 | enough cells in well | 352 | 347 | inactive |
| Uba1 | 1 | 1.31 | enough cells in well | 304 | 364 | inactive |
| Scamp4 | 1 | 0.82 | enough cells in well | 168 | 142 | inactive |
| Mrpl36 | 1 | 0.39 | enough cells in well | 248 | 125 | inactive |
| Slc16a14 | 1 | 2.99 | enough cells in well | 183 | 225 | inactive |
| Vps35l | 1 | 0.07 | enough cells in well | 173 | 204 | inactive |
| Rab19 | 1 | -0.77 | enough cells in well | 82.4 | 109 | inactive |
| Mrfap1 | 1 | -1.32 | enough cells in well | 104 | 100 | active |
| Wdr35 | 1 | 1.16 | enough cells in well | 218 | 121 | inactive |
| Rbbp8 | 1 | 0.36 | enough cells in well | 201 | 151 | inactive |
| Grhpr | 1 | 3.23 | enough cells in well | 474 | 548 | active |
| Eif5 | 1 | 0.26 | enough cells in well | 254 | 245 | inactive |
| H2-D4 | 1 | -1.27 | enough cells in well | 181 | 66.4 | inactive |
| Cimap2 | 1 | 0.14 | enough cells in well | 206 | 148 | inactive |
| Mapt | 1 | -0.04 | enough cells in well | 255 | 207 | inactive |
| Il17c | 1 | -0.73 | enough cells in well | 158 | 130 | inactive |
| C87436 | 1 | 0.03 | enough cells in well | 146 | 205 | inactive |
| Dnase1l3 | 1 | – | fewer than 50 cells per well; well left out of calls | 115 | 89.9 | inactive |
| Cacng3 | 1 | -0.63 | enough cells in well | 122 | 143 | inactive |

Just “Tnf reporter intensity, replicate 2” (8 entries from above):
Pym1 = 207
Acin1 = 100
Alox12 = 228
Cfap161 = 28.9
Or10g9 = 125
C530043K16Rik = 206
Pde6h = 210
Mcoln2 = 99.9

Additional reagents:
| target | reagent no. | Tnf reporter robust z-score | fewer than 50 cells in well | Tnf reporter intensity, replicate 1 | Tnf reporter intensity, replicate 2 | Outcome |
| --- | --- | --- | --- | --- | --- | --- |
| Ropn1 | 1 | 1.55 | enough cells in well | 210 | 179 | inactive |
| Retnlg | 1 | 1.94 | enough cells in well | 187 | 236 | inactive |
| Tas2r114 | 1 | – | fewer than 50 cells per well; well left out of calls | 61.8 | 54.3 | inactive |
| D930030K17Rik | 1 | -0.65 | enough cells in well | 143 | 130 | inactive |
| Pfdn1 | 1 | 0.13 | enough cells in well | 261 | 182 | inactive |
| Lce3b | 1 | – | fewer than 50 cells per well; well left out of calls | 49.6 | 57.5 | inactive |
| Pvr | 1 | -0.45 | enough cells in well | 239 | 146 | inactive |
| Pvr | 2 | 0.09 | enough cells in well | 289 | 231 | inactive |
| Fbxo27 | 1 | – | fewer than 50 cells per well; well left out of calls | 121 | 75.3 | inactive |
| Ubb | 1 | 0.38 | enough cells in well | 225 | 300 | inactive |
| Or7a42 | 1 | – | fewer than 50 cells per well; well left out of calls | 58.6 | 74.2 | inactive |
| Olfm1 | 1 | 1.78 | enough cells in well | 290 | 249 | inactive |
| Deup1 | 1 | – | fewer than 50 cells per well; well left out of calls | 144 | 58.7 | inactive |
| Scx | 1 | 0.47 | enough cells in well | 136 | 161 | inactive |
| Comt | 1 | 1.19 | enough cells in well | 304 | 310 | inactive |
| Ift81 | 1 | 2.74 | enough cells in well | 329 | 322 | inactive |
| Nabp2 | 1 | -0.14 | enough cells in well | 263 | 59.4 | inactive |
| Tex9 | 1 | 0.57 | enough cells in well | 165 | 90 | inactive |
| Surf6 | 1 | -0.25 | enough cells in well | 99.5 | 55.5 | inactive |
| Phka1 | 1 | 0.86 | enough cells in well | 245 | 215 | inactive |
| Denr | 1 | -0.57 | enough cells in well | 114 | 161 | inactive |
| Tnfrsf11a | 1 | 0.51 | enough cells in well | 264 | 162 | inactive |
